Measured values: the supplement of paper PMC8728848
This is one part of the list.

How the values were obtained:
Assay in all cases: glycan array binding signal (z-score within array); higher = stronger binding
Details in all cases: glycan notation: IUPAC condensed, linker removed
[1] = biological target: Gal(b1-3)GlcNAc(b1-6)[Gal(b1-3)]GalNAc
Procedure, shortened: (§1)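 Columns mapping to the same glycan were averaged after glycan names were converted to IUPAC-condensed notation. The data come from 3228 arrays in the Consortium for Functional Glycomics database, limited to those with an available protein sequence. Binding is reported as a within-array Z-score averaged across arrays of one protein sequence and across linkers.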

Gal(b1-3)GlcNAc6S = biological target: Gal(b1-3)GlcNAc6S
Procedure, shortened: as §1

[2] = biological target: Gal(b1-3)[Fuc(a1-4)]GlcNAc
Procedure, shortened: as §1

[3] = biological target: Gal(b1-3)[Fuc(a1-4)]GlcNAc(b1-2)Man
Procedure, shortened: as §1

[4] = biological target: Gal(b1-3)[Fuc(a1-4)]GlcNAc(b1-2)Man(a1-3)[Gal(b1-3)[Fuc(a1-4)]GlcNAc(b1-2)Man(a1-6)]Man(b1-4)GlcNAc(b1-4)[Fuc(a1-6)]GlcNAc
Procedure, shortened: as §1

[5] = biological target: Gal(b1-3)[Fuc(a1-4)]GlcNAc(b1-3)Gal(b1-3)[Fuc(a1-4)]GlcNAc
Procedure, shortened: as §1

[6] = biological target: Gal(b1-3)[Fuc(a1-4)]GlcNAc(b1-3)Gal(b1-4)[Fuc(a1-3)]GlcNAc
Procedure, shortened: as §1

[7] = biological target: Gal(b1-3)[Fuc(a1-4)]GlcNAc(b1-6)GalNAc
Procedure, shortened: as §1

[8] = biological target: Gal(b1-3)[GlcNAc(b1-6)]GalNAc
Procedure, shortened: as §1

[9] = biological target: Gal(b1-3)[Neu5Ac(a2-6)]GalNAc
Procedure, shortened: as §1

[10] = biological target: Gal(b1-3)[Neu5Ac(a2-6)]GlcNAc(b1-4)Gal(b1-4)Glc
Procedure, shortened: as §1

[11] = biological target: Gal(b1-3)[Neu5Ac(b2-6)]GalNAc
Procedure, shortened: as §1

Gal(b1-4)Gal = biological target: Gal(b1-4)Gal
Procedure, shortened: as §1

[12] = biological target: Gal(b1-4)GalNAc(a1-3)[Fuc(a1-2)]Gal(b1-4)GlcNAc
Procedure, shortened: as §1

[13] = biological target: Gal(b1-4)GalNAc(b1-3)[Fuc(a1-2)]Gal(b1-4)GlcNAc
Procedure, shortened: as §1

Gal(b1-4)Glc = biological target: Gal(b1-4)Glc
Procedure, shortened: as §1

Gal(b1-4)Glc6S = biological target: Gal(b1-4)Glc6S
Procedure, shortened: as §1

Gal(b1-4)GlcNAc = biological target: Gal(b1-4)GlcNAc
Procedure, shortened: as §1

[14] = biological target: Gal(b1-4)GlcNAc(a1-6)Gal(b1-4)GlcNAc
Procedure, shortened: as §1

Gal(b1-4)GlcNAc(b1-2)Man = biological target: Gal(b1-4)GlcNAc(b1-2)Man
Procedure, shortened: as §1

[15] = biological target: Gal(b1-4)GlcNAc(b1-2)Man(a1-3)Man(b1-4)GlcNAc(b1-4)GlcNAc
Procedure, shortened: as §1

[16] = biological target: Gal(b1-4)GlcNAc(b1-2)Man(a1-3)[Gal(b1-4)GlcNAc(b1-2)Man(a1-6)]Man(b1-4)GlcNAc(b1-4)GlcNAc
Procedure, shortened: as §1

[17] = biological target: Gal(b1-4)GlcNAc(b1-2)Man(a1-3)[Gal(b1-4)GlcNAc(b1-2)Man(a1-6)]Man(b1-4)GlcNAc(b1-4)[Fuc(a1-6)]GlcNAc
Procedure, shortened: as §1

[18] = biological target: Gal(b1-4)GlcNAc(b1-2)Man(a1-3)[Gal(b1-4)GlcNAc(b1-2)Man(a1-6)][Gal(b1-4)GlcNAc(b1-4)]Man(b1-4)GlcNAc(b1-4)[Fuc(a1-6)]GlcNAc
Procedure, shortened: as §1

[19] = biological target: Gal(b1-4)GlcNAc(b1-2)Man(a1-3)[Gal(b1-4)GlcNAc(b1-2)Man(a1-6)][GlcNAc(b1-4)]Man(b1-4)GlcNAc(b1-4)[Fuc(a1-6)]GlcNAc
Procedure, shortened: as §1

[20] = biological target: Gal(b1-4)GlcNAc(b1-2)Man(a1-3)[GlcNAc(b1-2)Man(a1-6)]Man(b1-4)GlcNAc(b1-4)GlcNAc
Procedure, shortened: as §1

[21] = biological target: Gal(b1-4)GlcNAc(b1-2)Man(a1-3)[GlcNAc(b1-4)][Gal(b1-4)GlcNAc(b1-2)Man(a1-6)]Man(b1-4)GlcNAc(b1-4)GlcNAc
Procedure, shortened: as §1

[22] = biological target: Gal(b1-4)GlcNAc(b1-2)Man(a1-3)[Man(a1-6)]Man(b1-4)GlcNAc(b1-4)GlcNAc
Procedure, shortened: as §1

[23] = biological target: Gal(b1-4)GlcNAc(b1-2)Man(a1-6)Man(b1-4)GlcNAc(b1-4)GlcNAc
Procedure, shortened: as §1

[24] = biological target: Gal(b1-4)GlcNAc(b1-2)Man(a1-6)[GlcNAc(b1-2)Man(a1-3)]Man(b1-4)GlcNAc(b1-4)GlcNAc
Procedure, shortened: as §1

[25] = biological target: Gal(b1-4)GlcNAc(b1-2)Man(a1-6)[Man(a1-3)]Man(b1-4)GlcNAc(b1-4)GlcNAc
Procedure, shortened: as §1

[26] = biological target: Gal(b1-4)GlcNAc(b1-2)[Gal(b1-4)GlcNAc(b1-4)]Man(a1-3)[Gal(b1-4)GlcNAc(b1-2)Man(a1-6)]Man(b1-4)GlcNAc(b1-4)GlcNAc
Procedure, shortened: as §1

[27] = biological target: Gal(b1-4)GlcNAc(b1-2)[Gal(b1-4)GlcNAc(b1-4)]Man(a1-3)[Gal(b1-4)GlcNAc(b1-2)[Gal(b1-4)GlcNAc(b1-6)]Man(a1-6)]Man(b1-4)GlcNAc(b1-4)GlcNAc
Procedure, shortened: as §1

[28] = biological target: Gal(b1-4)GlcNAc(b1-2)[Gal(b1-4)GlcNAc(b1-4)]Man(a1-3)[GlcNAc(b1-4)][Gal(b1-4)GlcNAc(b1-2)Man(a1-6)]Man(b1-4)GlcNAc(b1-4)GlcNAc
Procedure, shortened: as §1

[29] = biological target: Gal(b1-4)GlcNAc(b1-2)[Gal(b1-4)GlcNAc(b1-4)]Man(a1-3)[GlcNAc(b1-4)][Gal(b1-4)GlcNAc(b1-2)[Gal(b1-4)GlcNAc(b1-6)]Man(a1-6)]Man(b1-4)GlcNAc(b1-4)GlcNAc
Procedure, shortened: as §1

[30] = biological target: Gal(b1-4)GlcNAc(b1-2)[Gal(b1-4)GlcNAc(b1-6)]Man(a1-6)[Gal(b1-4)GlcNAc(b1-2)Man(a1-3)]Man(b1-4)GlcNAc(b1-4)GlcNAc
Procedure, shortened: as §1

[31] = biological target: Gal(b1-4)GlcNAc(b1-2)[Gal(b1-4)GlcNAc(b1-6)]Man(a1-6)[Gal(b1-4)GlcNAc(b1-2)Man(a1-3)]Man(b1-4)GlcNAc(b1-4)[Fuc(a1-6)]GlcNAc
Procedure, shortened: as §1

[32] = biological target: Gal(b1-4)GlcNAc(b1-2)[Gal(b1-4)GlcNAc(b1-6)]Man(a1-6)[GlcNAc(b1-4)][Gal(b1-4)GlcNAc(b1-2)Man(a1-3)]Man(b1-4)GlcNAc(b1-4)GlcNAc
Procedure, shortened: as §1

[33] = biological target: Gal(b1-4)GlcNAc(b1-2)[Gal(b1-4)GlcNAc(b1-6)]Man(a1-6)[GlcNAc(b1-4)][Gal(b1-4)GlcNAc(b1-2)[Gal(b1-4)GlcNAc(b1-4)]Man(a1-3)]Man(b1-4)GlcNAc(b1-4)[Fuc(a1-6)]GlcNAc
Procedure, shortened: as §1

[34] = biological target: Gal(b1-4)GlcNAc(b1-3)Gal(b1-3)GalNAc
Procedure, shortened: as §1

[35] = biological target: Gal(b1-4)GlcNAc(b1-3)Gal(b1-3)GlcNAc
Procedure, shortened: as §1

[36] = biological target: Gal(b1-4)GlcNAc(b1-3)Gal(b1-4)Glc
Procedure, shortened: as §1

[37] = biological target: Gal(b1-4)GlcNAc(b1-3)Gal(b1-4)GlcNAc
Procedure, shortened: as §1

[38] = biological target: Gal(b1-4)GlcNAc(b1-3)Gal(b1-4)GlcNAc(b1-2)Man(a1-3)[Gal(b1-4)GlcNAc(b1-3)Gal(b1-4)GlcNAc(b1-2)Man(a1-6)]Man(b1-4)GlcNAc(b1-4)GlcNAc
Procedure, shortened: as §1

[39] = biological target: Gal(b1-4)GlcNAc(b1-3)Gal(b1-4)GlcNAc(b1-2)Man(a1-3)[Gal(b1-4)GlcNAc(b1-3)Gal(b1-4)GlcNAc(b1-2)Man(a1-6)]Man(b1-4)GlcNAc(b1-4)[Fuc(a1-6)]GlcNAc
Procedure, shortened: as §1

B1: Clone646PsrP (Streptococcus pneumoniae) (protein)
chain: MDHHHHHHHHASENLYFQGAPAINASLNIAKSETKVYTGEGVDSVYRVPIYYKLKVTNDGSKLTFTYTVTYVNPKTNDLGNISSMRPGYSIYNSGTSTQTMLTLGSDLGKPSGVKNYITDKNGRQVLSYNTSTMTTQGSGYTWGNGAQMNGFFAKKGYGLTSSWTVPITGTDTSFTFTPYAARTDRIGINYFNGGGKVVESSTTSQSLSQSKSLSVSAS
[1]
  glycan array binding signal (z-score): 1.07
Gal(b1-3)GlcNAc6S
  glycan array binding signal (z-score): -0.416
[2]
  glycan array binding signal (z-score): -0.031
[3]
  glycan array binding signal (z-score): -0.526
[4]
  glycan array binding signal (z-score): -0.087
[5]
  glycan array binding signal (z-score): -0.905
[6]
  glycan array binding signal (z-score): -0.797
[7]
  glycan array binding signal (z-score): -0.757
[8]
  glycan array binding signal (z-score): 0.41
[9]
  glycan array binding signal (z-score): -0.596
[10]
  glycan array binding signal (z-score): -0.554
[11]
  glycan array binding signal (z-score): -0.931
Gal(b1-4)Gal
  glycan array binding signal (z-score): -0.923
[12]
  glycan array binding signal (z-score): -0.706
[13]
  glycan array binding signal (z-score): -0.989
Gal(b1-4)Glc
  glycan array binding signal (z-score): 0.581
Gal(b1-4)Glc6S
  glycan array binding signal (z-score): -0.138
Gal(b1-4)GlcNAc
  glycan array binding signal (z-score): 0.298
[14]
  glycan array binding signal (z-score): 1.03
Gal(b1-4)GlcNAc(b1-2)Man
  glycan array binding signal (z-score): 1.82
[15]
  glycan array binding signal (z-score): -0.345
[16]
  glycan array binding signal (z-score): -0.528
[17]
  glycan array binding signal (z-score): -0.109
[18]
  glycan array binding signal (z-score): -0.785
[19]
  glycan array binding signal (z-score): -0.984
[20]
  glycan array binding signal (z-score): -0.502
[21]
  glycan array binding signal (z-score): -0.84
[22]
  glycan array binding signal (z-score): -0.156
[23]
  glycan array binding signal (z-score): -0.442
[24]
  glycan array binding signal (z-score): -0.281
[25]
  glycan array binding signal (z-score): -0.948
[26]
  glycan array binding signal (z-score): -0.869
[27]
  glycan array binding signal (z-score): -0.986
[28]
  glycan array binding signal (z-score): -0.761
[29]
  glycan array binding signal (z-score): -0.776
[30]
  glycan array binding signal (z-score): -0.464
[31]
  glycan array binding signal (z-score): -0.52
[32]
  glycan array binding signal (z-score): -0.887
[33]
  glycan array binding signal (z-score): -0.183
[34]
  glycan array binding signal (z-score): 0.058
[35]
  glycan array binding signal (z-score): -0.913
[36]
  glycan array binding signal (z-score): -0.123
[37]
  glycan array binding signal (z-score): -0.073
[38]
  glycan array binding signal (z-score): 0.169
[39]
  glycan array binding signal (z-score): -0.383
